Measurements from patent publication US20150132277A1.
These are yes or no findings as the source states them, for the method shown. For part of these data: In cells and extracts the contact can be indirect. Some results given as binding are weak or reduced against the parent protein; the word gives no strength. For part of these data: Sequences can lack the tags named with a protein.

Protein sequences, listed by entry. Tags and fused reporters are not part of them.
UniProt P25025: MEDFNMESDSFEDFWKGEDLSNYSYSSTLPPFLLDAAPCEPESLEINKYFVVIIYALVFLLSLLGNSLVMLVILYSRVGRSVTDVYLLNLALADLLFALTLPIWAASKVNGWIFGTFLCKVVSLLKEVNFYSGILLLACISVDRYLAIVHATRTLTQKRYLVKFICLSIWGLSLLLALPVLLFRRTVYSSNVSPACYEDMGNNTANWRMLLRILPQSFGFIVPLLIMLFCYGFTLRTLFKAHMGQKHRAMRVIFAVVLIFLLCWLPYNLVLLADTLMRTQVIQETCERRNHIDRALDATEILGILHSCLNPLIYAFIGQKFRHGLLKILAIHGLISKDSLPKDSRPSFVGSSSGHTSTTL

Legend:
[1] = biological target: CXCR-2 on stably expressing HEK 293 cells (UniProt P25025); test: His6-tagged protein on CXCR-2 expressing HEK 293 cells, anti-His6 immunoblot of lysates
[2] = biological target: T1, CXCR-1 on stably expressing HEK 293 cells (UniProt P25024); test: His6-tagged protein incubated with cells, washed, lysed, anti-His6 immunoblot with actin as loading control
T1 sequence (looked up): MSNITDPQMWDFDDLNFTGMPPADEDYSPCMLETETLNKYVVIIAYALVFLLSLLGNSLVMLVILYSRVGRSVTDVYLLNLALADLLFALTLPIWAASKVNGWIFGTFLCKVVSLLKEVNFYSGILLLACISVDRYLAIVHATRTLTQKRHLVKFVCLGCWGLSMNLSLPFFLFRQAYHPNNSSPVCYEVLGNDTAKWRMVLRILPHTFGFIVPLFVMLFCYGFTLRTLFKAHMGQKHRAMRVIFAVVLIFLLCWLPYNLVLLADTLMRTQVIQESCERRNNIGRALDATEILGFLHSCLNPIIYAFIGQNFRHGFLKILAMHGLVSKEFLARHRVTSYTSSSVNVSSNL

[3] = biological target: CXCR-2 on stably expressing HEK 293 cells (UniProt P25025); test: as above
[4] = biological target: T1, CXCR-1 on stably expressing HEK 293 cells; test: binding of fixed WT mini-YRS to CXCR1-293 cells with 0-100 µg/ml C130^ox, immunoblot of cell lysates
[5] = biological target: CXCR-2 on stably expressing HEK 293 cells (UniProt P25025); test: binding of fixed WT mini-YRS to CXCR2-293 cells with 0-100 µg/ml C130^ox, immunoblot of cell lysates
[6] = biological target: T1, CXCR-1 on stably expressing HEK 293 cells; test: His6-tagged protein on CXCR-1 expressing HEK 293 cells, anti-His6 immunoblot of lysates
[7] = biological target: T2, biotinylated VE-EC1 (VE-EC1 with a C-terminal cysteine coupled to Maleimide-PEG2-Biotin) (Homo sapiens (Human)) (UniProt P33151); test: pull-down with VE-EC1-biotin on Strep-Tactin beads, 100 nM protein, anti-6xHis Western blot; T2-WRS is the weaker reference
T2 sequence (chain, C-terminal Cys biotinylated with Maleimide-PEG2-Biotin): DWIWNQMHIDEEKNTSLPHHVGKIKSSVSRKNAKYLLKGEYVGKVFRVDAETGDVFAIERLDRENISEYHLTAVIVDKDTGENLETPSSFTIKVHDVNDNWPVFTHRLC

[8] = biological target: T2, biotinylated VE-EC1 (VE-EC1 with a C-terminal cysteine coupled to Maleimide-PEG2-Biotin) (Homo sapiens (Human)); test: pull-down on Strep-Tactin beads with VE-EC1-biotin as bait, anti-6xHis Western blot
[9] = biological target: CXCR-2 on stably expressing HEK 293 cells (UniProt P25025); test: receptor binding assay on CXCR-2 expressing HEK 293 cells
[10] = biological target: T1, CXCR-1 on stably expressing HEK 293 cells; test: receptor binding assay on CXCR-1 expressing HEK 293 cells
[11] = biological target: T1, CXCR-1 on stably expressing HEK 293 cells; test: competitive binding on CXCR1-293 cells: fixed WT mini-YRS (competitor) with rising C130^ox, immunoblot of cell lysates
[12] = biological target: CXCR-2 on stably expressing HEK 293 cells (UniProt P25025); test: competitive binding on CXCR-2 expressing HEK 293 cells; competitor WT mini-YRS at fixed concentration
[13] = biological target: T1, CXCR-1 on stably expressing HEK 293 cells; test: competitive binding on CXCR-1 expressing HEK 293 cells; competitor WT mini-YRS at fixed concentration
[14] = biological target: CXCR-2 on stably expressing HEK 293 cells (UniProt P25025); test: competitive binding on CXCR2-293 cells: fixed WT mini-YRS (competitor) with rising C130^ox, immunoblot of cell lysates

Measured: binding

B1: wild-type (WT) human mini-YRS (N-terminal fragment of human tyrosyl-tRNA synthetase) (enzyme)
chain: MGDAPSPEEKLHLITRNLQEVLGEEKLKEILKERELKIYWGTATTGKPHVAYFVPMSKIADFLKAGCEVTILFADLHAYLDNMKAPWELLELRVSYYENVIKAMLESIGVPLEKLKFIKGTDYQLSKEYTLDVYRLSSVVTQHDSKKAGAEVVKQVEHPLLSGLLYPGLQALDEEYLKVDAQFGGIDQRKIFTFAEKYLPALGYSKRVHLMNPMVPGLTGSKMSSSEEESKIDLLDRKEDVKKKLKKAFCEPGNVENNGVLSFIKHVLFPLKSEFVILRDEKWGGNKTYTAYVDLEKDFAAEVVHPGDLKNSVEVALNKLLDPIREKFNTPALKKLASAAYPDPSKQKPMAKGPAKNSEPEEVI
binds: [1] | [2] | [3] | [4] | [5] | [6]

B2: human T2-WRS (residues 94-471 of full-length tryptophanyl-tRNA synthetase) with C-terminal His6 tag (enzyme)
chain: SAKGIDYDKLIVRFGSSKIDKELINRIERATGQRPHHFLRRGIFFSHRDMNQVLDAYENKKPFYLYTGRGPSSEAMHVGHLIPFIFTKWLQDVFNVPLVIQMTDDEKYLWKDLTLDQAYSYAVENAKDIIACGFDINKTFIFSDLDYMGMSSGFYKNVVKIQKHVTFNQVKGIFGFTDSDCIGKISFPAIQAAPSFSNSFPQIFRDRTDIQCLIPCAIDQDPYFRMTRDVAPRIGYPKPALLHSTFFPALQGAQTKMSASDPNSSIFLTDTAKQIKTKVNKHAFSGGRDTIEEHRQFGGNCDVDVSFMYLTFFLEDDDKLEQIRKDYTSGAMLTGELKKALIEVLQPLIAEHQARRKEVTDEIVKEFMTPRKLSFDFQHHHHHH
binds: [7] | [8]

B3: non-associating monomeric Δ159-161 variant of mini-YRS (enzyme)
chain: MGDAPSPEEKLHLITRNLQEVLGEEKLKEILKERELKIYWGTATTGKPHVAYFVPMSKIADFLKAGCEVTILFADLHAYLDNMKAPWELLELRVSYYENVIKAMLESIGVPLEKLKFIKGTDYQLSKEYTLDVYRLSSVVTQHDSKKAGAEVVKQVEHSGLLYPGLQALDEEYLKVDAQFGGIDQRKIFTFAEKYLPALGYSKRVHLMNPMVPGLTGSKMSSSEEESKIDLLDRKEDVKKKLKKAFCEPGNVENNGVLSFIKHVLFPLKSEFVILRDEKWGGNKTYTAYVDLEKDFAAEVVHPGDLKNSVEVALNKLLDPIREKFNTPALKKLASAAYPDPSKQKPMAKGPAKNSEPEEVI
binds: [1] | [2] | [3] | [9] | [6] | [10]

B4: C130^OX non-dissociating disulfide-linked dimer of T130C mini-YRS (enzyme)
chain: MGDAPSPEEKLHLITRNLQEVLGEEKLKEILKERELKIYWGTATTGKPHVAYFVPMSKIADFLKAGCEVTILFADLHAYLDNMKAPWELLELRVSYYENVIKAMLESIGVPLEKLKFIKGTDYQLSKEYCLDVYRLSSVVTQHDSKKAGAEVVKQVEHPLLSGLLYPGLQALDEEYLKVDAQFGGIDQRKIFTFAEKYLPALGYSKRVHLMNPMVPGLTGSKMSSSEEESKIDLLDRKEDVKKKLKKAFCEPGNVENNGVLSFIKHVLFPLKSEFVILRDEKWGGNKTYTAYVDLEKDFAAEVVHPGDLKNSVEVALNKLLDPIREKFNTPALKKLASAAYPDPSKQKPMAKGPAKNSEPEEVI
modifications: Cys 130 of the two subunits joined by a disulfide bond after I2 oxidation
binds: [11] | [12] | [13] | [14]
